# PubChem BioAssay AID504774, Drosophila RNAi Screening Center | 2011
# Test: 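Knock-downs that shift viability of MMS-exposed cells relative to untreated ones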 (primary screen)
# Cells: Drosophila Kc167 cells
# Reagent: long dsRNA against Drosophila genes, about 0.25 µg dsRNA per well
# Timing: about 6 days: 3 days knock-down, then 3 days with or without MMS
# Challenge: methyl methanesulphonate 0.004% (w/v) for 3 days after knock-down
# Read-out: 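ATP-dependent luminescence as a measure of live cells in MMS-exposed wells, quantile normalised within each plate, with replicate values also given as a mean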
# Direction: mean viability with MMS and viability with MMS: higher = more surviving cells after MMS
# The deposit covers about 23,000 reagents; shown is an unselected part of those with a known target gene and a result. 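Values are quantile-normalised luminescence on an arbitrary scale; higher means more cells surviving MMS.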 The numbers tell different reagents against one gene apart.
mean viability with MMS,"viability with MMS, replicate 1","viability with MMS, replicate 2",gene,reagent no.
3.62e6,4.23e6,3.92e6,Pmm2,1
3.59e6,4.08e6,4.07e6,CG3581,1
3.66e6,4.07e6,4.23e6,Hs6st,1
3.56e6,4.04e6,4.03e6,Hs6st,2
3.57e6,4.06e6,4.09e6,Hs6st,3
3.84e6,4.26e6,4.38e6,Hs6st,4
3.06e6,3.58e6,3.56e6,Crtc,1
3.63e6,4.23e6,4.03e6,Crtc,2
3.60e6,4.00e6,4.17e6,Or59a,1
3.46e6,3.92e6,3.91e6,siz,1
3.39e6,3.80e6,3.84e6,siz,2
3.35e6,3.70e6,3.85e6,siz,3
3.43e6,3.96e6,3.83e6,CG13896,1

An excerpt from above, showing only “mean viability with MMS”.
CG3581	3.59e6
Hs6st #1	3.66e6
